Earlier results, collected in patent publication US6627664B2, “Perylenequinones for use as sonosensitizers” (Altachem Pharma Ltd., priority 2001, dated 2003).
At least one structure is not confirmed: it was looked up by name or label, or the drawing left a doubt.

Test system: sarcoma 180 cells
Conditions: 80 μM, insonated, versus ultrasound alone; cited from earlier work

For `CC1=C(CCC(=O)O)c2cc3[nH]c(cc4nc(cc5[nH]c(cc1n2)c(C)c5C(C)O)C(C)=C4C(C)O)c(C)c3CCC(=O)O` (stereo not shown) [Hp, hematoporphyrin], the “rate of ultrasound-induced cell damage” value is listed as “double”.
